Laboratory results reported in publication PMC6691060.
Results are given in words; binding and its absence hold for the method and conditions named. Binding seen in cells or lysates may run through a third protein.

Chains of the proteins cited; added tags and fusions are not shown.
UniProt Q04206: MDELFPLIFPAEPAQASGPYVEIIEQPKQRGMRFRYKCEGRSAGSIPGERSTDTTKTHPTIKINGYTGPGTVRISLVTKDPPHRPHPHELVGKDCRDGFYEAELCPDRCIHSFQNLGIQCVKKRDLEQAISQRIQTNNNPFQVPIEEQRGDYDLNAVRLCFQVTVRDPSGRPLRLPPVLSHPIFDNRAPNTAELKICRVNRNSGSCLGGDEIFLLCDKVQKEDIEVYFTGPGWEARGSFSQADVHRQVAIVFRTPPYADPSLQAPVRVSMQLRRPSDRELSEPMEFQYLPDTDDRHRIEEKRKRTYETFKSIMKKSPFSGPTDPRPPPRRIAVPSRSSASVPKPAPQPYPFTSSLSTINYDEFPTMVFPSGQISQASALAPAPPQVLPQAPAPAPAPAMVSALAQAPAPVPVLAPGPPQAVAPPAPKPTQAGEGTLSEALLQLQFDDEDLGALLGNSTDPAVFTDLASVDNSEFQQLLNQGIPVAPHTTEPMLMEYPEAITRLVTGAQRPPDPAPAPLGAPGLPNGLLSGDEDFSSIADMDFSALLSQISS

Target: NF-κB p65 (UniProt Q04206)
Assay: co-IP; lysate supernatants immunoprecipitated with indicated antibodies overnight, Protein A/G Plus-agarose beads 4 h, Western blotting; which protein was precipitated and which cells were lysed are not told

B1: Transmembrane protein 16A (TMEM16A) (protein, UniProt Q5XXA6 1-986)
chain: MRVNEKYSTLPAEDRSVHIINICAIEDIGYLPSEGTLLNSLSVDPDAECKYGLYFRDGRRKVDYILVYHHKRPSGNRTLVRRVQHSDTPSGARSVKQDHPLPGKGASLDAGSGEPPMDYHEDDKRFRREEYEGNLLEAGLELERDEDTKIHGVGFVKIHAPWNVLCREAEFLKLKMPTKKMYHINETRGLLKKINSVLQKITDPIQPKVAEHRPQTMKRLSYPFSREKQHLFDLSDKDSFFDSKTRSTIVYEILKRTTCTKAKYSMGITSLLANGVYAAAYPLHDGDYNGENVEFNDRKLLYEEWARYGVFYKYQPIDLVRKYFGEKIGLYFAWLGVYTQMLIPASIVGIIVFLYGCATMDENIPSMEMCDQRHNITMCPLCDKTCSYWKMSSACATARASHLFDNPATVFFSVFMALWAATFMEHWKRKQMRLNYRWDLTGFEEEEEAVKDHPRAEYEARVLEKSLKKESRNKEKRRHIPEESTNKWKQRVKTAMAGVKLTDKVKLTWRDRFPAYLTNLVSIIFMIAVTFAIVLGVIIYRISMAAALAMNSSPSVRSNIRVTVTATAVIINLVVIILLDEVYGCIARWLTKIEVPKTEKSFEERLIFKAFLLKFVNSYTPIFYVAFFKGRFVGRPGDYVYIFRSFRMEECAPGGCLMELCIQLSIIMLGKQLIQNNLFEIGIPKMKKLIRYLKLKQQSPPDHEECVKRKQRYEVDYNLEPFAGLTPEYMEMIIQFGFVTLFVASFPLAPLFALLNNIIEIRLDAKKFVTELRRPVAVRAKDIGIWYNILRGIGKLAVIINAFVISFTSDFIPRLVYLYMYSKNGTMHGFVNHTLSSFNVSDFQNGTAPNDPLDLGYEVQICRYKDYREPPWSENKYDISKDFWAVLAARLAFVIVFQNLVMFMSDFVDWVIPDIPKDISQQIHKEKVLMVELFMREEQDKQQLLETWMEKERQKDEPPCNHHNTKACPDSLGSPAPSHAYHGGVL
- binding: no binding
